## Results of single-concentration screens

Data taken from ChEMBL document CHEMBL3988442, “University of Dundee, Small-Polar-MMV Screening Library” (2021).

Results are given as percent effect. How 0% and 100% were set is not recorded. Most values in the screen are low, and negative values occur. Compounds were drawn at random from those tested, without regard to their results. Two or more numbers in one place are separate tests of the same structure; such repeats can differ widely.

Leishmania in macrophages: 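Cell assay of Leishmania donovani living inside macrophages; the read-out is not stated. Tested at 30 µM. Higher reads as stronger inhibition (inferred: compounds with an IC50 in retests scored well above the rest). Of about 69,000 compounds tested this way, about 1,000 (1.5%) reached 50% or more in at least one test.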
Toxoplasma: 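Assay of Toxoplasma gondii numbers, read through their beta-galactosidase reporter with a colour substrate. Compounds at 10 µM. Higher reads as fewer parasites (inferred from which compounds were picked for retests). About 67,000 compounds were tested under these conditions; 0.38% (about 260) showed 50% or more at least once.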

structure	Leishmania in macrophages	Toxoplasma
Cc1ccc(C(=O)N(C)S(C)(=O)=O)cc1Cl	10.56	-3.772
[H][C@@]12CCCN1C[C@H](CCSC)N(Cc1cn(CC)nc1C)C2	22.86	1.165
Cc1nc(C(=O)N2CCCC(c3ccc4sc(N)nc4n3)C2)co1 (centres undefined)	3.902 & 19.5	2.955
CCN(C)C[C@@H]1CN(C(=O)NC2CCCCC2)C[C@@H]1CO	29.43	3.018
CSc1ccc(C(C(=O)O)N2CCC(CO)CC2)cc1 (centres undefined)	7.997	-0.7396
CN1C(=O)CCCC12CCCN(C(=O)c1cccc(C(F)(F)F)c1)C2 (centres undefined)	25.18	3.667
Clc1ccccc1CCN1CCN(c2ccc3nncn3n2)CC1	7.685	4.852
COc1ccc2c(c1)OCC(CNC(=O)c1cnc(O)cn1)C2 (centres undefined)	-30.37	-1.555
Cc1nc(NCCc2ccc(Cl)cc2)cc(C(=O)N2CCCCC2)n1	1.558	2.673
[H][C@@]12C[C@H](c3nnc(C)o3)CN(S(=O)(=O)N(C)C)[C@]1([H])CCO2	31.85	4.415
CC(=O)c1cccc(OCCCC(=O)N(C)Cc2ccccn2)c1	0.7524	-0.9233
Cc1cc(C)n(C2CCN(c3ncnc4c3CCC4)C2)n1 (centres undefined)	20.69	0.3594
COC(=O)c1sccc1S(=O)(=O)NCCC(O)c1ccco1 (centres undefined)	6.626 & 15.74	6.306
CCC(C)Oc1ccc(CNCCNC(C)=O)cc1Cl (centres undefined)	40.54	19.61
CCN(CC)S(=O)(=O)c1ccc(CNC(=O)c2cc(C)on2)cc1	-54.12	4.174
Cc1nn(C)cc1CNC(=O)c1cn(CCC2CCCCN2)nn1 (centres undefined)	33.39	-0.1101
[H][C@@]12COC[C@]1(COc1ccc(C#N)cn1)CN(Cc1ccccn1)C2	8.732	-11.17
Cc1cccc(N2CC3(CCN(S(=O)(=O)c4ccccc4)C3)CC2=O)c1 (centres undefined)	13.24	19.66
CC1(C)CNC(=O)c2nc(-c3nnc(-c4ccccc4)[nH]3)[nH]c2C1	5.375	14.46
Cn1cnc2cc(C(=O)NS(=O)(=O)CC3CCCC3)ccc21	2.19	-7.636
CC(=O)N1CCC2(CC1)CN(C(=O)[C@@H]1CSCN1)c1ccc(Cl)cc12.O=C(O)C(F)(F)F	42.29	14.81
O=C(O)C(F)(F)F.O=S(=O)(C1CC1)N1CCC2(CCCN(c3ncccn3)C2)C1 (centres undefined)	20.15	22.23
Cn1ccnc1CN1CCCC(CCc2ccc(F)c(F)c2)C1 (centres undefined)	-15.56	10.58
CN(C)S(=O)(=O)Nc1ccc(Oc2ccc3c(c2)OCO3)cc1	-3.926	5.687
O=C(O)C(F)(F)F.[H][C@]12CC[C@@]3(N=C(CC)NC3=O)[C@@]1([H])CN(Cc1ccccc1C)C2	9.963	-18.69
O=S(=O)(CC1CCCCO1)Nc1c(F)cccc1-n1cccn1 (centres undefined)	-4.124	-2.841
[H][C@]12CC[C@]([H])(CN(C(=O)c3cccnc3)C1)N(Cc1ccc(F)cc1Cl)C2	-32.52	-0.9732
[H][C@]12CCN(C(=O)c3cnccn3)[C@@]1([H])CC[C@H](COCC)O2	-11.32	1.56
COCCC(=O)N1CC2(CCN(Cc3ccncc3)CC2)C1	34.97	-7.893
CCn1cnnc1CNC(=O)N1CCC(CN2CCOCC2)CC1	19.97	-22.36
CC(NC(N)=O)C(=O)NCc1ccnc(Oc2ccc(F)cc2)c1 (centres undefined)	15.59	-4.298
Cc1nc(C)c(CC(=O)Nc2nnc(C)s2)c(=O)[nH]1	15.22	-9.88
[H][C@@]12CCN(C(=O)Cc3ccccn3)C[C@]1([H])[C@H](c1nnc(C)o1)CCO2	29.11	3.499
CC(C)N1C(=O)C2(CCN(C)CC2)c2cc(F)ccc21.Cl	46.36	11.06
Cc1ccc(C(=O)N[C@H]2CN(CCO)C[C@@H]2C2CC2)cc1Cl	-2.548	6.167
CC(C)c1cc(NC(CCO)c2ccccc2)n2nccc2n1 (centres undefined)	6.153	-27.29
Cc1nccn1CCN(C)c1nc(-c2ccc(Cl)cc2)nc2c1CNC2	51.4	-1.126
CCCN1CCN(c2nc(N)nc3c2nc(C)n3C)CC1	-1.527	14.71
CCCNC(=O)C(C)Nc1ccn(Cc2ccccn2)n1 (centres undefined)	4.556	-6.757
FC(F)(F)c1ccc(-c2n[nH]c3c2CN(CC2CCOC2)CC3)cc1 (centres undefined)	4.569	0.1335
[H][C@@]12CCN(C(=O)C3CCOCC3)C[C@@]1([H])O[C@@H](c1nnc(C)[nH]1)C2	19.06	-4.908
O=C(NC[C@H]1OC[C@@H](NC2CCCCC2)[C@@H]1O)Nc1ccccc1	2.986	-2.605
CC(=O)N(C)Cc1ccccc1NCc1c(C)cccc1C	-8.258	-6.64
CCN(c1ccc(C(=O)NCc2cc[nH]n2)cc1)C(C)C	8.268	-6.586
Cc1nc(C2CCCN(C(=O)c3cc(C)sc3C)C2)no1 (centres undefined)	-25.49	0.5057
CC(=O)N1CCc2[nH]nc(C(=O)N3CCOCC3)c2C1	2.507	-7.428
CN(Cc1cccc(OC(F)(F)F)c1)C(=O)Cc1ccon1	2.822	-41.64
CC(C)CC(NCc1cccs1)c1ccccn1 (centres undefined)	-8.508	12.61
O=C(O)C(F)(F)F.O=C(O)C(F)(F)F.O=C1N(c2cccnc2)CCC12CCCN(Cc1ccco1)C2 (centres undefined)	4.639	0.05634
c1csc(-c2noc(CN3CCc4c(ncn4C4CC4)C3)n2)c1	7.066	1.357
CN(C)c1ncccc1CNCc1ccc(N2CCOCC2)cc1	-1.638	1.775
Cc1c(COC(C)C)cccc1NC(=O)N1CCC(N2CCCC2)C1 (centres undefined)	-20.62	4.886
Cc1ccccc1CN1CCN(CC(=O)Nc2cccnc2)CC1	20.87	4.076
CCc1nc(CN2CCOC(Cn3nc(C)nc3C)C2)no1 (centres undefined)	9.509	-1.695
Cc1cccc(OCC(O)CNCc2c(C)nn(C)c2N(C)C)c1 (centres undefined)	12.91	4.943
Cc1ncsc1CNc1cccc(OCCN2CCCC2)c1	18.47	-1.033
CC(O)CN1CCC(CN(C)Cc2cccc(C(=O)N(C)C)c2)CC1 (centres undefined)	22.23	19.69
CC1=C(C#N)C(=O)NC(=O)/C1=C\c1c(C)nn(-c2ccc(C)cc2)c1O	29.76	5.918
CC(C)n1c(C2CCCN(CC(N)=O)C2)nc2ccccc21 (centres undefined)	0.009374	-0.8661
COC(=O)c1ccccc1S(=O)(=O)NC(=O)c1cccc2c1OCCO2	-38.19	4.696
CC(C)Cc1ncc2c(n1)CN(C(=O)Cn1c(=O)oc3ccccc31)C2	-14.97	-4.673
CC(=O)Nc1nc(C(=O)N2CCCC(n3ccnc3C)C2)cs1 (centres undefined)	7.339	-3.432
COCCn1ccc(NCc2cc3cc(F)ccc3o2)n1	-42.7	-20.91
CN(C)c1ncc(CN2CCOC(C(=O)Nc3ccccc3)C2)cn1 (centres undefined)	-7.564	-5.824

The first 7 entries again:

Cc1ccc(C(=O)N(C)S(C)(=O)=O)cc1Cl gave Leishmania in macrophages: 10.56%; Toxoplasma: -3.772%.
[H][C@@]12CCCN1C[C@H](CCSC)N(Cc1cn(CC)nc1C)C2 gave Leishmania in macrophages: 22.86%; Toxoplasma: 1.165%.
Cc1nc(C(=O)N2CCCC(c3ccc4sc(N)nc4n3)C2)co1 (centres undefined) gave Leishmania in macrophages: 3.902% & 19.5%; Toxoplasma: 2.955%.
CCN(C)C[C@@H]1CN(C(=O)NC2CCCCC2)C[C@@H]1CO gave Leishmania in macrophages: 29.43%; Toxoplasma: 3.018%.
CSc1ccc(C(C(=O)O)N2CCC(CO)CC2)cc1 (centres undefined) gave Leishmania in macrophages: 7.997%; Toxoplasma: -0.7396%.
CN1C(=O)CCCC12CCCN(C(=O)c1cccc(C(F)(F)F)c1)C2 (centres undefined) gave Leishmania in macrophages: 25.18%; Toxoplasma: 3.667%.
Clc1ccccc1CCN1CCN(c2ccc3nncn3n2)CC1 gave Leishmania in macrophages: 7.685%; Toxoplasma: 4.852%.